Assay results taken from US11866474B2, “Modulating angiogenesis by proteomimetics of vascular endothelial growth factor” (UNIVERSITY OF SOUTH FLORIDA, priority 2021, dated 2024).
Entries after “also recorded” stand apart in the source; their conditions may differ. At least one peptide structure holds a part that was inferred or is arguable (an end, a ring closure or a residue).

Chains of the proteins cited; added tags and fusions are not shown. Residues count along the entry.
UniProt P35968, 20-1356: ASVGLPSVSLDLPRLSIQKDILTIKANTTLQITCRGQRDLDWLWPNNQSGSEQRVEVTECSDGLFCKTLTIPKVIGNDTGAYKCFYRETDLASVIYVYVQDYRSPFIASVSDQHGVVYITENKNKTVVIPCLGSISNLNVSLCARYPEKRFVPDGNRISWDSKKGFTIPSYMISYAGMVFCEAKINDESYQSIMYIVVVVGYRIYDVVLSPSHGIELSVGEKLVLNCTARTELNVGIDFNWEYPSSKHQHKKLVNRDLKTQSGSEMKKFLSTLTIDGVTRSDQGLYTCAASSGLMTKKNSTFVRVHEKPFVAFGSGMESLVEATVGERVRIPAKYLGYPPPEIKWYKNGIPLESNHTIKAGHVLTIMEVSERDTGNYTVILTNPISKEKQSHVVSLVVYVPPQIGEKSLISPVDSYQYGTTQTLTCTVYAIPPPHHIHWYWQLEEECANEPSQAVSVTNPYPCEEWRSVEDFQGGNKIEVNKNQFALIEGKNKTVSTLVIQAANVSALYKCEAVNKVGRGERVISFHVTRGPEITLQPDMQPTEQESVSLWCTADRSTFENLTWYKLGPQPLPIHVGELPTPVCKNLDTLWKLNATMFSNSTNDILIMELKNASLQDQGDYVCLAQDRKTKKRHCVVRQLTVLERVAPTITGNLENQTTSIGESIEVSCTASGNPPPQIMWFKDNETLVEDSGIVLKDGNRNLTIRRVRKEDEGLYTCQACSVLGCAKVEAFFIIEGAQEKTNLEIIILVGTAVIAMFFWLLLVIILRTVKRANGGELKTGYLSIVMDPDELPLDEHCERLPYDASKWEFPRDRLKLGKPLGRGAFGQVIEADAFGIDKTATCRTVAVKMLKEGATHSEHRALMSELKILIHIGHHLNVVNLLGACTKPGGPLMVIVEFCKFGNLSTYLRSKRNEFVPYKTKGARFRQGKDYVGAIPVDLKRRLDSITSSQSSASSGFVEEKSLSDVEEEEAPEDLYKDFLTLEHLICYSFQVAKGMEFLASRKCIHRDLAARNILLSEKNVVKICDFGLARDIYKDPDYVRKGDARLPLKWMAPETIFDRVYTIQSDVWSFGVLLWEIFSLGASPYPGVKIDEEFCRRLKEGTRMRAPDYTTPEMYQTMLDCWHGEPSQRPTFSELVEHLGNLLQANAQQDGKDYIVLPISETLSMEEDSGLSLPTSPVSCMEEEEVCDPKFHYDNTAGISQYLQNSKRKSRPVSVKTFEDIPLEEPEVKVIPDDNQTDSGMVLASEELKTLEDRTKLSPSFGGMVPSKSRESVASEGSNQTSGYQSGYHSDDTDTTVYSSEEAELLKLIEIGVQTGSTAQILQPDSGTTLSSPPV
UniProt P17948, 27-756: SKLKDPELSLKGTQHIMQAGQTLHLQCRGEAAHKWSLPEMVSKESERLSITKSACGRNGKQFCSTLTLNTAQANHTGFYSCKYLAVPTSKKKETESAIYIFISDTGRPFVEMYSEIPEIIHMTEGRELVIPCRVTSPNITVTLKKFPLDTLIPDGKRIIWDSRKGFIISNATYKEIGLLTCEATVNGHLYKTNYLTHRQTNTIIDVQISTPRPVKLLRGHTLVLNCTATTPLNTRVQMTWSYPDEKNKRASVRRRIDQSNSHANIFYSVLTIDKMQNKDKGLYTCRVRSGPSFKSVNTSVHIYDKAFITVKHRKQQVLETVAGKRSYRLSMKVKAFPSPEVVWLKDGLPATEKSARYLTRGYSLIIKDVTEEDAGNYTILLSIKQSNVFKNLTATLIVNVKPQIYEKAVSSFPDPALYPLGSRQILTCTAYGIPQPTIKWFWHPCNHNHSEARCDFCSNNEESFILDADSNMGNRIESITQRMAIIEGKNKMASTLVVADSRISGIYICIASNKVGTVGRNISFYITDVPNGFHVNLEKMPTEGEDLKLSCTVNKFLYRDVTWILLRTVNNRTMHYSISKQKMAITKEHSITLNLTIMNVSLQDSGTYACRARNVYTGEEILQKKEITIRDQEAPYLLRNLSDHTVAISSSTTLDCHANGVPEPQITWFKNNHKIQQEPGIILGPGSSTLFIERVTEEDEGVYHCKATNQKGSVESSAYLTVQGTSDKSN
UniProt P17948, 27-1338: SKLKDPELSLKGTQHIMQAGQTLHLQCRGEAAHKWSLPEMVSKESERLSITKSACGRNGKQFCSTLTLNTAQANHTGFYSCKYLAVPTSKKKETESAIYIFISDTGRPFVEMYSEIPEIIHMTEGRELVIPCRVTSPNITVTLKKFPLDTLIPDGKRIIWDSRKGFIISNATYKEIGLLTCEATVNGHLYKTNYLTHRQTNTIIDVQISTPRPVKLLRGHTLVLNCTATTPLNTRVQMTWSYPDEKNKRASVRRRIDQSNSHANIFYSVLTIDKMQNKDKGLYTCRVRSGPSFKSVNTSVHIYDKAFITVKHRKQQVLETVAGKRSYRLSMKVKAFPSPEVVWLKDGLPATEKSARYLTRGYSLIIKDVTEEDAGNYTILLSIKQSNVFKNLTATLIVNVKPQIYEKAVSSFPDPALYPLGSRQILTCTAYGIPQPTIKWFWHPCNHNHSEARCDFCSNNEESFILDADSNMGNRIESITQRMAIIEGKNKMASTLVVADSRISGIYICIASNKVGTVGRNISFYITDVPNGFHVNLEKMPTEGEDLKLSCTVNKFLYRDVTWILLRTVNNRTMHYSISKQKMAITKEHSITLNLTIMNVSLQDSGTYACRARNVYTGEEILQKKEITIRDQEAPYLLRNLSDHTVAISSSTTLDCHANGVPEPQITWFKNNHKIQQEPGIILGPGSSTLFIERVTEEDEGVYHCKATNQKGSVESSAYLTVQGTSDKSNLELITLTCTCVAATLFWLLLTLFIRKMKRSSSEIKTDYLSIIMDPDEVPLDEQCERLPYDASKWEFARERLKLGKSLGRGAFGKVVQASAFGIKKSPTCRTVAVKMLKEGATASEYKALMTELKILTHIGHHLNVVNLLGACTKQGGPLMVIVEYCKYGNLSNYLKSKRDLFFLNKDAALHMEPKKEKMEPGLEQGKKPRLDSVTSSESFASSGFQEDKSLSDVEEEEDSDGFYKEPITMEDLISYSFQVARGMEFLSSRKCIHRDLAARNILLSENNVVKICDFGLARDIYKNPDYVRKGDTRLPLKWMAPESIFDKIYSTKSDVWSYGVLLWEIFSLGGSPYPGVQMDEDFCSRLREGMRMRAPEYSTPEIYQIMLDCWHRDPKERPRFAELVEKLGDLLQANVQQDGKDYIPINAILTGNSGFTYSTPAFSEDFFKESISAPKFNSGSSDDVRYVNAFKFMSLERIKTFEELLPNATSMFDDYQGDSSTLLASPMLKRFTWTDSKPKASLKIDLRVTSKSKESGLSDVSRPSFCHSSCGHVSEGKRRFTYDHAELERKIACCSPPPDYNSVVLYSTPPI

Tests used:
HUVECs [1] = experiment: Wound healing (scratch-wound motility) assay; type: cell-based, human; details: 10 μM, in the presence of VEGF165 (50 ng/mL), 24 h
Experimental: Wound healing is facilitated by the VEGF pathway's effect on cell migration and proliferation.14 The effect of the helical mimic sequences on cell migration and invasion was tested on HUVECs in the presence of VEGF165 using a scratch-wound motility assay. […] HUVEC cells (10^5) were seeded on a 12 well tissue culture plate and allowed to grow for 12 h. The attached cells were then scratched with a sterile […] pipette tip and treated with mimic sequences (10 μM) and/or VEGF165 (50 ng/mL) in serum free medium. […] The wound widths were measured by ImageJ (version 1.50).

VEGFR-2 = target: T1, VEGFR-2 (Homo sapiens, UniProt P35968); experiment: Immunofluorescence binding assay with anti-VEGFR-2 antibody; type: cell-based; details: HUVECs treated with 10 μM, compared to control
T1 construct: endogenous in cells; host or cells: HUVEC
Experimental: (§1) On the basis of the assays conducted, the inventors speculated that distinct cell signaling and angiogenic response are due to the sequences V2 and V3 binding to different VEGFR subtypes. To further characterize the binding profiles of V2 and V3 to VEGFR-1 and VEGFR-2, immunofluorescence studies were carried out using HUVECs and antibodies specific to each receptor. Cells treated with V2 and V3 (10 μM) were fixed and treated with anti-VEGFR-1 and anti-VEGFR-2 antibodies, followed by FITC-labeled secondary antibody and a DAPI counterstain. […] HUVEC cells grown in m-Dish 35 mm, high Glass Bottom (#81158 Ibidi) were treated with V2 and V3 overnight at 37° C. Cells were then washed with TBST twice and fixed with 4% formaldehyde solution (Fisher Chemical) for 20 min at room temperature. This was followed by TBST wash twice and blocking with TBST—5% BSA blocking solution for 1 h at room temperature. After washing the cells with TBST three times, the cells were incubated with anti-VEGFR-1 antibody (Proteintech) and anti-VEGFR-2 antibody (Invitrogen) overnight at 4° C. […] A Nikon fluorescence microscope was used for imaging cells and image analysis was done with Image J software (ImageJ 5.53e, National Institute of Health, USA).

VEGFR-2 (P-VEGFR-2) = experiment: Western blot of VEGFR-2 phosphorylation in HUVEC lysates; type: cell-based, human; details: 0.1, 0.5, 1, 10 μM, with VEGF-A stimulation
Experimental: (§2) The effect of VEGF-mimicking sequences on VEGF-A-mediated activation of Akt, a key VEGF downstream signal,^68 and VEGFR-2 was then examined by Western blot (FIG. 8). […] However, the activation of the VEGF pathway by V2 and QK is dependent on the presence of VEGF-A (FIG. 8E). […] HUVECs (1×10^6) were starved for 24 h and treated with a V1, V2, V3 and QK in the presence or absence of VEGF-A165 at 37° C. for 24 h. Cells were then lysed with a lysis buffer containing Protease and Phosphatase Inhibitor (Thermo Scientific) to obtain total cellular proteins, and the amount of protein was quantified using the BCA Protein Assay Kit (Thermo Scientific, Waltham, MA). Proteins were then denatured by boiling at 100° C. for 10 min in the sample buffer and separated by electrophoresis on 10% SDS-[…] minigels. Target proteins were transferred to polyvinylidene difluoride membranes and blocked with 5% BSA in TBST solution for 1 h and then washed three times with TBST (5 min each time). […]

[2] = target: T2, VEGFR-1 extracellular domain (Met 1-Asn 756) (Homo sapiens, UniProt P17948); experiment: Surface plasmon resonance binding to VEGFR-1 extracellular domain; details: VEGFR1 over VEGFR2
T2 construct: VEGF-1 protein extracellular domain (Met 1-Asn 756); purchased Creative BioMart USA FLT1-3809H
Experimental: Surface plasmon resonance (SPR) assays were carried out to determine the binding affinities of the VEGF mimic sequences toward the extracellular domains of VEGFR-1 and VEGFR-2 (FIGS. 13 and 14).
Binding kinetics of VEGF mimics to VEGFR-1 were measured by surface plasmon resonance (SPR) using a Biacore T200 (General Electric Co.). […] protein extracellular domain (Met 1-Asn 756) (FLT1-3809H, Creative BioMart USA) was covalently coupled to CMS chip following manufacturer's instructions. Samples were prepared in RBS-EP+ buffer (pH 7.4) at different concentration and flowed over the sensor chip to interact with the immobilized protein, followed by the running buffer. The dissociation data was collected, and a different concentration was assayed after redundant samples were removed from the protein by treating with KCl (1 M). The final binding kinetics was obtained by fitting using the T200 software with a one-to-one binding model. Binding affinities of mimic sequences to VEGFR-2 were measured using VEGFR-2 extracellular domain (Met 1-Glu 764) (KDR-6966H, Creative BioMart USA) in a similar fashion.

HUVECs [3] = experiment: Transwell cell migration assay; type: cell-based, human; details: 10 μM, in the presence of VEGF165 (50 ng/mL), 12 h
Text: Endothelial cell migration is an essential component of angiogenesis mediated by the VEGF pathway and can be used to assess the effect of drugs on the VEGF pathway. A Transwell migration assay was used to test the effect of the mimic sequences on the migration of human umbilical endothelial cells (HUVECs). […] Given the findings that V2 has a much stronger binding affinity for VEGFR1 than VEGFR2 (FIG. 12), the inventors speculated that this stimulatory effect may be due to its specific binding to VEGFR1, the decoy receptor. It is plausible that inhibition of VEGF-A binding to VEGFR-1 leads to an increased level of VEGF-A to bind and activate VEGFR-2, an indirect activation of the main angiogenic receptor.67 Cell migration assay was performed in triplicates on Transwell permeable support, 8.0 μm pore (Corning, USA). […] Migrated cells at the bottom of the membrane were fixed with 4% paraformaldehyde and stained with Crystal Violet at 37° C. for 20 min and 10 min respectively and counted with Nikon Inverted Microscope ECLIPSE Ti-U.

HUVECs [4] = experiment: Capillary tube formation assay; type: cell-based, human; details: 2 μM, in the presence of VEGF165 (50 ng/mL), 24 h
Experimental: The ultimate effect of angiogenesis is the formation of vasculature that can support healing, survival, and proliferation. Next, the inventors used HUVECs to investigate the effect of the AA peptide sequences on the formation of capillary-like tube structures in vitro in the presence of VEGF165. […] Nutrient starved HUVECs, for 24 h in 0.5% FBS (sEBM) endothelial basal medium (EBM), were harvested and resuspended in 10% FBS (mEGM) endothelial growth medium. Cells were then seeded in 48 well plate coated with basement membrane extract (BME). To prepare the plates, Costar48 well culture plates were coated with basement membrane (Corning Matrigel Basement Membrane Matrix LDEV-free, 354234) and incubated for 30 min at 37° C. 5×10^4 cells were seeded in each well and treated with VEGF mimic sequences and/or VEGF165, or left untreated. Formation or lack thereof of tube-like structures was monitored over a 24 h period with a Nikon Inverted Microscope ECLIPSE Ti-U.

VEGFR-1 = target: T3, VEGFR-1 (Homo sapiens, UniProt P17948); experiment: Immunofluorescence binding assay with anti-VEGFR-1 antibody; type: cell-based; details: HUVECs treated with 10 μM, compared to control
T3 construct: immunofluorescence studies were carried out using HUVECs and antibodies specific to each receptor; endogenous in cells; host or cells: HUVEC
Experimental: as §1

Akt (P-AKT) = experiment: Western blot of Akt phosphorylation in HUVEC lysates; type: cell-based, human; details: 0.1, 0.5, 1, 10 μM, with VEGF-A stimulation
Experimental: as §2

CC(=O)N[C@@H](CCC(=O)O)CN(CC(=O)N[C@@H](CC(C)C)CN(CC(=O)N[C@@H](Cc1ccccc1)CN(CC(=O)N[C@@H](CCC(=O)O)CN(CC(=O)N[C@@H](Cc1ccc(O)cc1)CN(CC(=O)N[C@@H](CCCCN)CN(CC(=O)N[C@@H](Cc1ccc(O)cc1)CN(CC(=O)N[C@@H](C)CN(CC(N)=O)S(C)(=O)=O)S(C)(=O)=O)S(C)(=O)=O)S(=O)(=O)CCN)S(=O)(=O)CC(C)C)S(=O)(=O)CC(C)C)S(=O)(=O)CCN)S(=O)(=O)CCN [V2]
Cell migration in wound healing assay (HUVECs [1]): did not exhibit inhibition of migration; also recorded: did not activate migration
Fluorescence with anti-VEGFR-2 antibody (VEGFR-2): negligible reduction in fluorescence
Phosphorylation of VEGFR-2 (P-VEGFR-2) (VEGFR-2 (P-VEGFR-2)): increased the levels of phosphorylation
Selectivity for VEGFR1 (SPR binding) [2]: remarkable selectivity
Number of HUVECs migrating (Transwell) (HUVECs [3]): markedly increased
Capillary tube formation (HUVECs [4]): strong stimulation of tube formation
Fluorescence with anti-VEGFR-1 antibody (VEGFR-1): markedly lower fluorescence
Phosphorylation of Akt (P-AKT) (Akt (P-AKT)): increased the levels of phosphorylation
